The values are deposited in ChEMBL (CHEMBL3988442, “University of Dundee, Small-Polar-MMV Screening Library” (2021)).

By UniProt entry, the sequences of proteins in these tests, tags left out. Residues count along the entry.
UniProt Q4DA54, 1-478: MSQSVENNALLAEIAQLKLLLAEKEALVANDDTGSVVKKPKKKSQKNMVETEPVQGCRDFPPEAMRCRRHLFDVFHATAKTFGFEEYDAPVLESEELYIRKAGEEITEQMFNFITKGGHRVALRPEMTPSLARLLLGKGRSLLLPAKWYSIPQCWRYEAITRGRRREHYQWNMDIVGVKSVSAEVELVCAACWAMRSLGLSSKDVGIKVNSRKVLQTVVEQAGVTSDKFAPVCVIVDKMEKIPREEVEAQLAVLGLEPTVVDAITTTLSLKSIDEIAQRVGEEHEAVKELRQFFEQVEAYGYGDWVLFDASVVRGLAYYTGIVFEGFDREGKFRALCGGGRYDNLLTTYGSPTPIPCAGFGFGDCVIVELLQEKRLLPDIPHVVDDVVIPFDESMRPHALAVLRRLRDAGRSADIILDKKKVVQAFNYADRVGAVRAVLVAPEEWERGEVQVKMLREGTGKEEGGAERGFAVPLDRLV
UniProt A4I591, 1-473: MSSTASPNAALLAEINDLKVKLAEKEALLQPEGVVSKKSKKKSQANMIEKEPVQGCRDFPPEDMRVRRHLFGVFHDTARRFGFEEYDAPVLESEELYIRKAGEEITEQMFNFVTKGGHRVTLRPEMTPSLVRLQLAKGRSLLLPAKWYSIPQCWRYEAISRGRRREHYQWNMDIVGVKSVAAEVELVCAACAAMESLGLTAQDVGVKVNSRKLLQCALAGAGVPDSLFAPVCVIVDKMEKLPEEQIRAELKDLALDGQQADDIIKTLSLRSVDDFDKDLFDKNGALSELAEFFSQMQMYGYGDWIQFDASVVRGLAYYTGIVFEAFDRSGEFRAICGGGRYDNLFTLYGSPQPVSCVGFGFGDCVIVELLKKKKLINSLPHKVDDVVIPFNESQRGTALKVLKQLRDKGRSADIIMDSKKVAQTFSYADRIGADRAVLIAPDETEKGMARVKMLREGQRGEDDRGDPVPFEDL
UniProt Q8IDJ8, 1-583: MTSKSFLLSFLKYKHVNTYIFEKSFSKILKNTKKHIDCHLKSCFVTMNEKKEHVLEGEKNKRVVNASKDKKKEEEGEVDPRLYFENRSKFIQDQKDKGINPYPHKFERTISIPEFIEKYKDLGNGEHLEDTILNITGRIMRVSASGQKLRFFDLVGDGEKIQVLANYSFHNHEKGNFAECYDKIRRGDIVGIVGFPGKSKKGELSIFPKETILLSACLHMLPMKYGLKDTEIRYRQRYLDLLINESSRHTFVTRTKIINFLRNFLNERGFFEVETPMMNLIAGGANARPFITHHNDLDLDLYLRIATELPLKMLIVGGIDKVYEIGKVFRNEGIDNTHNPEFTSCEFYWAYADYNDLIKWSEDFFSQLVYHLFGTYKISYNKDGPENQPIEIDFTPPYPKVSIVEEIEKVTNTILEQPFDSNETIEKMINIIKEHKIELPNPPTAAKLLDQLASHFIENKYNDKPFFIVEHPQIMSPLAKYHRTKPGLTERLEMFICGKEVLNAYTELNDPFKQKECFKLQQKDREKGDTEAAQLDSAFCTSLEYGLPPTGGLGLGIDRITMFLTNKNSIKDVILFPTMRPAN

TcHisRS: 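Histidine-tRNA ligase, Trypanosoma cruzi CL Brener (UniProt Q4DA54). Enzyme assay of histidyl-tRNA synthetase; the read-out is not stated. Compounds at 30 µM. The record gives no direction; compounds that gave an IC50 in retests scored well above the rest, so higher reads as stronger inhibition. About 69,000 compounds were tested under these conditions; 0.045% (about 31) showed 50% or more at least once.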
LiHisRS: 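Histidine-tRNA ligase, Leishmania infantum (UniProt A4I591). Enzyme assay of histidyl-tRNA synthetase; the read-out is not stated. Compounds at 30 µM. Direction is inferred from retests: higher values go with stronger inhibition. The assay is labelled LdHisRS but filed under L. infantum. Of about 69,000 compounds tested this way, about 410 (0.6%) reached 50% or more in at least one test.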
PfKRS1: 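Lysine-tRNA ligase, Plasmodium falciparum 3D7 (UniProt Q8IDJ8). Enzyme assay of the cytosolic lysyl-tRNA synthetase in 384-well plates, read by luminescence. Tested at 30 µM. Higher reads as stronger inhibition, judged from the few compounds that gave an IC50. About 69,000 compounds were tested under these conditions; 0.071% (about 49) showed 50% or more at least once.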

Each number is a percent effect as filed. How 0% and 100% were set is not recorded. Most values in the screen are low, and negative values occur. The compounds are a random part of those screened.

With Cc1ccc(C(=O)NCCS(=O)(=O)N2CCSCC2)n1C the screen gave TcHisRS: -1.754%; LiHisRS: 14.16%; PfKRS1: 6.681%. For CCN1CCN2CCCN(S(=O)(=O)c3cccc(F)c3)C2C1=O (stereo unspecified) the result was TcHisRS: 7.059%; LiHisRS: 16.67%; PfKRS1: 1.84%. With CCN(CC)C(=O)CNC(=O)N1CCC(c2ccccc2)C1 (stereo unspecified) the screen gave TcHisRS: -7.179%; LiHisRS: -4.082%; PfKRS1: -3.021%. Fc1cnc(N2CCCC3(CN(Cc4ccccc4)CCO3)C2)nc1 (stereo unspecified) read TcHisRS: 8.046%; LiHisRS: 18%; PfKRS1: 3.303%. CC(C)c1nc(C2CCCN(c3nccc(C(F)(F)F)n3)C2)no1 (stereo unspecified) gave TcHisRS: 3.061%; LiHisRS: 11.11%; PfKRS1: 5.492%. Result for CN(CCc1ccccn1)C(=O)c1cnn(-c2ccccc2F)c1N was TcHisRS: 4.545%; LiHisRS: 13.86%; PfKRS1: 2.805%. With CCc1noc(CN(CC)C(=O)CC2C(=O)NCCN2CC(C)(C)C)n1 (stereo unspecified) the screen gave TcHisRS: 5.6%; LiHisRS: 6.195%; PfKRS1: -0.3179%. For c1ccc(OCc2nnc3n2CCN(Cc2ccco2)C3)nc1 the result was TcHisRS: 5.747%; LiHisRS: 22%; PfKRS1: 5.794%.

Result for CCc1nc(CN2CCN(C(=O)Cc3c(C)noc3C)CC2)cs1 was TcHisRS: 0.7634%; LiHisRS: -14.89%; PfKRS1: 5.345%. Result for CS(=O)(=O)c1ccc(CNC[C@H]2COCc3nc4cccnc4n32)cc1 was TcHisRS: 1.493%; LiHisRS: 19.44%; PfKRS1: 8.163%. CCc1nc(C)c([C@H]2CN(C)C[C@@H]2C(=O)NC(C)(C)c2ccccc2)[nH]1 gave TcHisRS: 3.175%; LiHisRS: 21.21%; PfKRS1: -1.108%. Result for CC1CN(C(=O)CN(Cc2ccccc2Cl)C2CCCC2)CCO1 (stereo unspecified) was TcHisRS: 8.455%; LiHisRS: 9.735%; PfKRS1: -1.544%. With CCC1CN(CC(=O)Nc2sccc2C#N)CCO1 (stereo unspecified) the screen gave TcHisRS: 2.662%; LiHisRS: 26.4%; PfKRS1: 2.462%. For CSCC(=O)NS(=O)(=O)c1ccc2c(c1)OCCO2 the result was TcHisRS: 5.325%; LiHisRS: 12.5%; PfKRS1: -1.665%. For O=C(CSC1=NS(=O)(=O)c2cc(F)ccc2N1)c1ccc(Cl)cc1 the result was TcHisRS: 1.087%; LiHisRS: 16.5%; PfKRS1: 4.232%. Cc1cc(CNC(=O)c2cc(C(C)C)n(C)n2)ccc1S(C)(=O)=O gave TcHisRS: 4.762%; LiHisRS: 15.56%; PfKRS1: 1.253%.

Cn1cc(N2Cc3nc(N4CCOCC4)ncc3C2=O)cn1 read TcHisRS: 6.957%; LiHisRS: 17.24%; PfKRS1: 4.97%. Result for COc1ccc2c(c1)OCC(C(=O)NCc1nc3c(s1)CCCC3)C2 (stereo unspecified) was TcHisRS: -2.609%; LiHisRS: 11.67%; PfKRS1: 9.038%. Cc1nc(-c2ccc(Cl)s2)sc1C(=O)NC(C)(C)C(N)=O gave TcHisRS: 4.373%; LiHisRS: 5.505%; PfKRS1: -0.3989%. For COc1no[n+]([O-])c1-c1ccccc1 the result was TcHisRS: 5.699%; LiHisRS: 7.865%; PfKRS1: 0.9515%. Result for Cc1ncsc1CN1CC[C@H]2OCC[C@@]2(C(=O)N2CCCC2)C1 was TcHisRS: 2.151%; LiHisRS: 13.27%; PfKRS1: -0.7281%. Result for Cc1ccoc1C(=O)N1CC[C@H]2C[C@H](c3nnc(C4CC4)o3)O[C@@H]2C1 was TcHisRS: 4.233%; LiHisRS: 10%; PfKRS1: 2.426%. CCCC(C)N(C)Cc1nnc(-c2ccc(Br)s2)o1 (stereo unspecified) read TcHisRS: 3.061%; LiHisRS: 12.9%; PfKRS1: -0.9698%. Result for Cc1ccc(N2CCCC(NCc3ccc4c(c3)OCCO4)C2)nn1 (stereo unspecified) was TcHisRS: 3.198%; LiHisRS: 0.8772%; PfKRS1: 0.12%.

Result for CCN1CCN(Cc2nc(CCc3ccccc3)n[nH]2)CC1 was TcHisRS: 7.831%; LiHisRS: 17.58%; PfKRS1: -2.091%. With CC(C)(C)c1ncc(C(=O)NCCNC(=O)c2cccs2)s1 the screen gave TcHisRS: 0%; LiHisRS: -0.8929%; PfKRS1: 2.073%. Cc1nn(C)c(C)c1CN(C)S(=O)(=O)c1c(C)n[nH]c1C read TcHisRS: 7.937%; LiHisRS: -2.941%; PfKRS1: -1.036%. c1cnc(N2CCO[C@@H]3CN(Cc4ccoc4)C[C@@H]3C2)nc1 read TcHisRS: 2.793%; LiHisRS: 5.769%; PfKRS1: 5.037%.

Once more, the final 2:

- Cc1nn(C)c(C)c1CN(C)S(=O)(=O)c1c(C)n[nH]c1C | TcHisRS: 7.937%; LiHisRS: -2.941%; PfKRS1: -1.036%
- c1cnc(N2CCO[C@@H]3CN(Cc4ccoc4)C[C@@H]3C2)nc1 | TcHisRS: 2.793%; LiHisRS: 5.769%; PfKRS1: 5.037%